No constants are given. Whether binding was seen depends on the method and setting. In cells and extracts the contact can be indirect. These calls come from enrichment with a bait or labelling near it, and not all partners need be listed. Where a sequence is shown, tags or fusion partners need not be part of it.
Biological target: T1, FBXL6-Flag (F-box/LRR-repeat protein 6, wild type) (human) (UniProt Q8N531)
T1 sequence: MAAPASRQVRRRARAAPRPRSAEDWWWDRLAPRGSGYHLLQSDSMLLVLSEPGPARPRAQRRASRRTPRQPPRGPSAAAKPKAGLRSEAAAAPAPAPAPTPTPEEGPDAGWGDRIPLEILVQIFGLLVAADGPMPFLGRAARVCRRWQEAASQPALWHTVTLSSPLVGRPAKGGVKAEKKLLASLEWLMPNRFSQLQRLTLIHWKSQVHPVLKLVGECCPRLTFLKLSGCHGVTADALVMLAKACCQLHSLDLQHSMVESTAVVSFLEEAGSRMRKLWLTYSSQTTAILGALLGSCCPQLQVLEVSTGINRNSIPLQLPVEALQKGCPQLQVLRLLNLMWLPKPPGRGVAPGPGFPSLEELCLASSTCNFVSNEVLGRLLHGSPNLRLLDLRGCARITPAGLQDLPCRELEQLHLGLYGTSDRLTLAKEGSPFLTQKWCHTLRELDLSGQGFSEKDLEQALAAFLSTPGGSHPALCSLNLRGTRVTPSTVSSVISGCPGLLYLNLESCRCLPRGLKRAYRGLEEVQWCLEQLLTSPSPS
Test: affinity purification with mass spectrometry

Question: HSP90AA1 (from UniProt P07900 1-732) was tested. Which binding did it give?
Answer: Its binding is “binds”.

— publication doi:10.1101/2022.11.01.514535
